# In PubChem BioAssay AID651595 (National Center for Advancing Translational Sciences (NCATS), 2012):
# Fewer than 10 of roughly 1,100 compounds were called active. Another 6% or so got no clear call; they are omitted. The call rests on the fitted dose curve; in most records, active means well fitted cell-killing curve with a large enough effect; inconclusive means small, poorly fitted or top-dose-only effect; inactive means flat fitted curve, though single readings scatter. Some of the results follow.
# Assay: qHTS of Nrf2 Activators: Hit Validation in Cytotox Assay;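 further: compound exposure lasted 24 hours before the ATP readout; 0% is about no effect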
# Details: Cell viability counter-screen for Nrf2 activator hits; series mostly up to 46.1 µM; activity change, negative = cytotoxicity: at the top concentration
# Method in brief: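 AREc32_fluc cells plated overnight, then treated at 7 concentrations for 24 h at 37 °C. Viability from intracellular ATP by CellTiter-Glo luminescence after 30 min at room temperature; cytotoxic compounds flagged active.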
SMILES,"activity change, negative = cytotoxicity",Potency
O=C(NCc1ccco1)c1cccnc1-c1nc2ccccc2s1,inactive: -4.16%,–
Fc1cccc(Nc2nc3ccccc3n3cnnc23)c1,inactive: 2.44%,–
O=C(/C=C/c1ccco1)Nc1cccnc1Cl,inactive: -10.5%,–
COC(=O)CSc1nc2ccccn2c(=O)c1C=O,inactive: 8.53%,–
Cc1cccc2c(=O)n(C(=O)c3ccccc3)c(N)nc12,inactive: -2.75%,–
O=Cc1c(NCc2ccco2)nc2ccccn2c1=O,inactive: 7.6%,–
CC(=O)Nc1ccc2nc(NC(=O)c3ccco3)sc2c1,inactive: -23.1%,–
COc1cc2c(cc1Cl)/C(=C\CCN(C)C)c1ccccc1S2,inactive: -16.9%,–
O=C(CSc1nc2c(sc3ccccc32)c(=O)n1-c1ccccc1)NCc1ccco1,inactive: 2.64%,–
Cc1ccc(C(=O)N/N=C/c2ccc(-c3ccc(Br)cc3[N+](=O)[O-])o2)o1,inactive: 0.605%,–
COc1ccc(Cc2c(-c3ccccc3)nc3c4ccccc4ccn23)c(C)c1,inactive: -9.88%,–
N/C(=N\OC(=O)c1ccco1)c1cccc(Br)c1,inactive: 3.8%,–
C=CCn1c(=NC(=O)c2cc(Cl)sc2Cl)sc2cc(S(N)(=O)=O)ccc21,inactive: -1.89%,–
CC(=O)Cn1nnc2sc(-c3ccccc3)cc2c1=O,–,inactive
O=[N+]([O-])c1ccccc1/C=N/Nc1nccnc1Cl,inactive: -2.15%,–
O=C(c1ccco1)c1cn(CC(=O)N2CCCc3ccccc32)c2ccccc12,inactive: -12%,–
COc1cc2c(c(Br)c1N)-c1cc(Br)c(N)cc1C2=O,inactive: 6.97%,–
Cc1ccc(OCC(=O)Nc2cccc3ccccc23)c([N+](=O)[O-])n1,inactive: -0.354%,–
c1ccc(Cn2ncc3c(NCc4ccco4)ncnc32)cc1,inactive: -5.44%,–
COc1cccc(C(=O)Nc2cc(C)c3c(=O)oc4ccccc4c3n2)c1,inactive: 6.12%,–
O=C(N/N=C\c1ccc(Cl)cc1)c1sccc1-n1cccc1,inactive: 4.12%,–
Cc1csc(NC(=O)/C=C/c2ccco2)n1,inactive: 6.19%,–
Cc1csc(NC(=O)c2cc(-c3ccco3)nc3ccccc23)n1,inactive: 0.0095%,–
C/C(=N\NC(=O)c1cccc(S(=O)(=O)N2CCCC2)c1)c1ccco1,inactive: -5.03%,–
O=C1/C(=C\c2ccc(Cl)cc2)CCC1CNc1ccc(Cl)cc1 (stereo not given),inactive: 0.701%,–

# Structures from the list above containing a furan ring, fused or not (12):
SMILES,"activity change, negative = cytotoxicity",Potency
O=C(NCc1ccco1)c1cccnc1-c1nc2ccccc2s1,inactive: -4.16%,–
O=C(/C=C/c1ccco1)Nc1cccnc1Cl,inactive: -10.5%,–
O=Cc1c(NCc2ccco2)nc2ccccn2c1=O,inactive: 7.6%,–
CC(=O)Nc1ccc2nc(NC(=O)c3ccco3)sc2c1,inactive: -23.1%,–
O=C(CSc1nc2c(sc3ccccc32)c(=O)n1-c1ccccc1)NCc1ccco1,inactive: 2.64%,–
Cc1ccc(C(=O)N/N=C/c2ccc(-c3ccc(Br)cc3[N+](=O)[O-])o2)o1,inactive: 0.605%,–
N/C(=N\OC(=O)c1ccco1)c1cccc(Br)c1,inactive: 3.8%,–
O=C(c1ccco1)c1cn(CC(=O)N2CCCc3ccccc32)c2ccccc12,inactive: -12%,–
c1ccc(Cn2ncc3c(NCc4ccco4)ncnc32)cc1,inactive: -5.44%,–
Cc1csc(NC(=O)/C=C/c2ccco2)n1,inactive: 6.19%,–
Cc1csc(NC(=O)c2cc(-c3ccco3)nc3ccccc23)n1,inactive: 0.0095%,–
C/C(=N\NC(=O)c1cccc(S(=O)(=O)N2CCCC2)c1)c1ccco1,inactive: -5.03%,–

# Further compounds follow.

SMILES,"activity change, negative = cytotoxicity",Potency
O=C(/C(C=Nc1cccc(C(F)(F)F)c1)=C(/O)c1ccco1)C(F)(F)F,inactive: -1.02%,–
Cc1ccsc1-c1ccnc(-n2cccc2)n1,inactive: 4.55%,–
Cc1cc(NC(=O)c2ccccc2F)nc2c1c(=O)oc1ccccc12,inactive: -0.116%,–
S=c1[nH]nc(COc2ccccc2)n1/N=C/C(Cl)=C/c1ccccc1,inactive: 4.04%,–
O=C(CC(=O)c1ccccn1)c1ccccc1,inactive: -28.7%,–
O=C(C=Cc1ccccc1Cl)c1ccccc1,inactive: -10.9%,–
CN(C)CCN(C(=O)/C=C/c1cccs1)c1nc2c(F)cc(F)cc2s1,inactive: -18.2%,–
O=C(CSc1nnc(-c2cccnc2)o1)c1cc2ccccc2oc1=O,inactive: 0.11%,–
O=C(N/N=C/c1ccco1)Nc1ccccc1,inactive: 4.52%,–
O=C1Nc2ccccc2SC1=Cc1ccccc1,inactive: 1.37%,–
O=C(/C=C\c1ccc2c(c1)OCO2)CC1(O)C(=O)Nc2ccccc21 (stereo not given),inactive: 9.16%,–
Cc1cc(N/N=C/c2c(O)ccc3ccccc23)nc(-c2ccccc2O)n1,inactive: -27%,–
COc1cc(OC)c(OC)cc1/C=C1/Cc2ccccc2C1=O,inactive: -2.08%,–
O=C(Nc1cccc(/C=C/c2ccccn2)c1)c1ccc(-n2cncn2)cc1,inactive: 8.24%,–
Cc1ccc(C)c(NC(=S)c2nc3ccccc3s2)c1,inactive: -4.35%,–
COC(=O)c1c(NC(=O)c2ccco2)sc(C)c1C,inactive: 8.04%,–
COc1ccc(NC(=O)C2CC(=O)N/C(=N/N=C/c3ccco3)S2)cc1 (stereo not given),inactive: 3.28%,–
O=c1oc2ccccc2nc1/C=C(\O)c1ccc(Br)cc1,inactive: -1.91%,–
COC(=O)c1sccc1NC(=O)c1ccc(Br)o1,inactive: 5.03%,–
Clc1ccc(-c2nnc(-c3cccc4ccccc34)o2)cc1,inactive: 4.92%,–
COc1ccc(-c2nnc3c4ccccc4c(C)nn23)cc1,inactive: 4.5%,–
COc1ccccc1Cc1c(-c2ccco2)nc2ccc(Cl)cn12,inactive: -12.6%,–
COc1ccccc1C(=O)NCc1nc2cccnc2n1Cc1ccc(F)cc1,inactive: 12.8%,–
CNc1ccc(Br)cc(C(=O)/C=C/c2cccc(OC)c2)c1=O,inactive: 7.9%,–
CC(=NNC(=O)CSc1nc2ccccc2o1)c1ccco1,inactive: -0.611%,–

SMILES,"activity change, negative = cytotoxicity",Potency
CCCc1cc(C(N)=O)c(NC(=O)c2ccco2)s1,inactive: -1.86%,–
N#Cc1c(-c2ccco2)cc(-c2ccccn2)nc1N,inactive: -0.246%,–
O=C(/C=C/c1ccccc1Cl)Nc1nc(-c2cccs2)ns1,inactive: -0.488%,–
O=C(Nc1ccccc1C(=O)N/N=C/c1ccco1)c1ccccc1,inactive: -18.2%,–
FC(F)(F)c1cc(-c2cccs2)nc2cc(-c3cccs3)nn12,inactive: -1.01%,–
Cc1nnc(NC(=O)/C=C/c2ccco2)s1,inactive: 3.4%,–
Cc1cccc(C)c1NC(=S)NC(=O)c1cccc(Cl)c1,inactive: 10.1%,–
Cc1sc(NC(=S)NC(=O)c2ccco2)c(C(N)=O)c1C,inactive: 3.75%,–
CCOC(=O)Cc1csc(NC(=O)/C=C/c2ccco2)n1,inactive: 0.943%,–
Cc1nn(C)c(C)c1/C=C(/C(=O)C(C)(C)C)n1cncn1,inactive: -1.24%,–
O=C(CSc1ncnc2sc3c(c12)CCCC3)c1ccco1,inactive: -11.2%,–
COc1cc2c(cc1NC(=O)c1cccc(F)c1)CCCC2,inactive: -2.03%,–
O=Cc1c(Sc2ccccn2)nc2ccccn2c1=O,inactive: 9.74%,–
S=c1[nH]nc(-c2ccccc2)n1/N=C/C=C/c1ccco1,inactive: 3.5%,–
CCc1nc(N)c(C#N)c(-c2ccco2)c1C,inactive: -1.86%,–
CC(C)Oc1ccccc1/C=N/Nc1ccccc1[N+](=O)[O-],inactive: 2.18%,–
O=C(N/N=C\C=C\c1ccco1)c1cc(-c2ccc3ccccc3c2)n[nH]1,inactive: 12.2%,–
Cn1c(SCC(=O)N/N=C/C=C\c2ccco2)nc2ccccc21,inactive: 2.39%,–
CSc1nsc(SC)c1C(=O)Nc1ccc(Cl)cc1,inactive: -0.834%,–
O=[N+]([O-])c1cc(-c2nc(-c3ccccc3)no2)ccc1NCc1cccnc1,inactive: -22.6%,–
C[n+]1c2n(c3ccccc31)N=C(c1ccccc1)CS2,–,inactive
N#Cc1c(-c2ccco2)cc(-c2ccc(F)cc2)nc1N,inactive: 8.67%,–
Cc1ccc([N+](=O)[O-])cc1NC(=O)c1ccc(C(C)(C)C)cc1,inactive: -1.77%,–
Clc1ccccc1NN=Cc1ccccn1,inactive: 1.21%,–
Oc1ccccc1-c1csc(-c2ccccc2)n1,inactive: 14.2%,–

SMILES,"activity change, negative = cytotoxicity",Potency
COc1ccc(NC(=O)c2cc(-c3ccco3)on2)c(OC)c1,inactive: 9.38%,–
O=C(Nc1nc2ccsc2c(=O)s1)c1ccco1,inactive: 0.375%,–
CCOC(=O)c1sc(NC(=O)c2ccccc2F)c(C(N)=O)c1C,inactive: 7.14%,–
C/C(=N\NC(=O)c1cccc(S(=O)(=O)Nc2cccc(Cl)c2)c1)c1cccs1,inactive: -26%,–
O=C(Nc1cccn2ncnc12)c1cccc(C(F)(F)F)c1,inactive: 0.124%,–
Cc1cc(=O)n2nc(-c3ccccc3)sc2c1C#N,inactive: 1.07%,–
CC(C)Nc1ccc(-c2nc(-c3ccco3)no2)cc1[N+](=O)[O-],inactive: 10.1%,–
Cc1c(NC(=O)Nc2cccs2)cccc1[N+](=O)[O-],inactive: 9.6%,–
O=C(Nc1cc(Cl)ccc1-n1cncn1)c1ccco1,inactive: 15.6%,–
S=C(NNc1ccc2ccccc2c1)NC1CCCCC1,inactive: -1.82%,–
COC(=O)c1c(NC(=O)/C=C/C(=O)O)sc(C)c1-c1ccc(C(C)C)cc1,inactive: -2.1%,–
COc1ccccc1NC(=O)c1ncn(-c2ccccc2)n1,inactive: -0.953%,–
COc1ccccc1C(=O)O/N=C(\N)c1ccc(Cl)cc1,inactive: 2.4%,–
O=C(/C=C/c1ccco1)NC(=S)Nc1ccccc1N1CCCC1,inactive: 6.04%,–
Clc1nc2sccn2c1/C=N/n1cnc2ccccc21,inactive: 6.23%,–
COn1c(=O)c(-c2cccc(Br)c2)[n+]([O-])c2ccccc21,inactive: -2.87%,–
Cc1noc(C(=O)Nc2cc(Cl)ccc2O)c1Cl,inactive: -29%,–
FC(F)(F)c1cc(-c2cccs2)nc(-n2cc(Br)cn2)n1,inactive: 0.601%,–
Cn1cnnc1Sc1ccc(/C=C/C(=O)c2ccc(O)cc2)cc1[N+](=O)[O-],inactive: -12.4%,–
CSc1nc(Oc2ccc3ccccc3c2)c2sccc2n1,inactive: 7.5%,–
Cc1sc2ncnc(NCc3ccco3)c2c1C,inactive: -11.6%,–
Fc1cccc(Cl)c1/C=N/Nc1ccccn1,inactive: -6.88%,–
COc1cccc(C2=CC(c3cccs3)n3nnnc3N2)c1 (stereo not given),inactive: 1.85%,–
CC(=O)N(/N=C1\Sc2ccccc2C1=O)c1ccccc1,inactive: -6.11%,–
N/C(=N\OC(=O)/C=C/c1ccccc1)c1cccnc1,inactive: -0.168%,–

# Single records, from the list above. Values in the order: activity change, negative = cytotoxicity | Potency
# O=C(Nc1cccn2ncnc12)c1cccc(C(F)(F)F)c1 is entered as inactive: 0.124% | –
# O=C(Nc1cc(Cl)ccc1-n1cncn1)c1ccco1 is entered as inactive: 15.6% | –
# Cc1c(NC(=O)Nc2cccs2)cccc1[N+](=O)[O-] is entered as inactive: 9.6% | –
